Drawing on article doi:10.1101/2025.01.13.632772, this text covers binding for one substance.

Chains of the proteins cited; added tags and fusions are not shown.
UniProt P25106: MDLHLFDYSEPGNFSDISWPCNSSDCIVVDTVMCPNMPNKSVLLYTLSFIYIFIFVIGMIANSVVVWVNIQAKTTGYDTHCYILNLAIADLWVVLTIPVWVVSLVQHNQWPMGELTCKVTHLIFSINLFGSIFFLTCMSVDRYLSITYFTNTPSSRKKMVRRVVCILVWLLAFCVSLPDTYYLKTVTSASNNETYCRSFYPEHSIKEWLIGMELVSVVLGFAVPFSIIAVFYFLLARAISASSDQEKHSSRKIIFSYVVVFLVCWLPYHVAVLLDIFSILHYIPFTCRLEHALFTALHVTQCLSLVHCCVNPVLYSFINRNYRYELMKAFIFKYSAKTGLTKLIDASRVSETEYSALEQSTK
UniProt P20309: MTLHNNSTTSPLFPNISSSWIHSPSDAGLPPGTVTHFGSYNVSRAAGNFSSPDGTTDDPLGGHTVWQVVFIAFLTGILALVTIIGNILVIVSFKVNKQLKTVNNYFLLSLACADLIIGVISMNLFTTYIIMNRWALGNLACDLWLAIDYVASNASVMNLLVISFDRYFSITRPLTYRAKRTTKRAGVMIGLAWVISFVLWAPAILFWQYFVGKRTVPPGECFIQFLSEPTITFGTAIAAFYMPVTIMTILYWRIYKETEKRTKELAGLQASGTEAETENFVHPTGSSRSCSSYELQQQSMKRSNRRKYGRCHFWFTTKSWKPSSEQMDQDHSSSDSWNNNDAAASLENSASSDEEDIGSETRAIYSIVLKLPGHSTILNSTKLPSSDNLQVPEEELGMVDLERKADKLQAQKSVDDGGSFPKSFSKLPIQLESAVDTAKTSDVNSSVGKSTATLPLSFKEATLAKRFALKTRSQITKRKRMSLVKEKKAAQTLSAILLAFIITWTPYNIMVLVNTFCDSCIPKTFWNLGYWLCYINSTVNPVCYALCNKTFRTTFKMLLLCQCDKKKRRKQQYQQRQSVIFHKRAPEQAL

The target of the assay is CXCR7 (human (endogenous in primary infant ASMCs)) (UniProt P25106). The assay can be described thus: co-IP.

Results are given in words; binding and its absence hold for the method and conditions named. Binding seen in cells or lysates may run through a third protein.

On to “muscarinic acetylcholine receptor 3 (from UniProt P20309 1-590)”, for which the binding result is reported as “no binding”.
